Laboratory results reported in US10471054B2, “CDK1 inhibitors of acetyl chrysin mannich base derivatives, synthesis and use thereof” (priority 2016, dated 2019).
Some entries share one result that the patent states for a list of compounds.

System: PBMCs, activated lymphocytes, human normal Liver cells
Experiment: H2O2 level in blood and normal cells, PF1-H2O2 fluorescent probe
Assay type: cell-based
Protocol: The cells are cancer cells (MCF-7, GBC-823, Hep G2) and normal cells (Liver, COS-7, PBMCs). According to the literature [Scientific Reports, 2015, 5: 13626; Anti-cancer Agents in Medicinal Chemistry, 2016, 16: 914-924.], in vitro cultured cells was given to CH-j 25 μM for 3.5 h, added PF1-H2O2 selective fluorescence probe 10 μM for 0.5 h and detected the concentration of H2O2 in cells, and performed fluorescence imaging by results shown in FIG. 1.
FIG. 1-3, FIG. 1-4, The fluorescence imaging by PF1-H2O2 10 μM is that CH-j […] for 4 h affected the level of H2O2 in MCF-7, GBC-823, Hep G2 and Liver.
FIG. 1-3: CH-j/BA-j affects the levels of H2O2 in blood cells, X-coordinate is the concentration of CH-j/BA-j concentration (μM), and Y-coordinate the intracellular levels of H2O2 (μM) for 4 h with PF1-H2O2 10 μM by Fluorescence Microplater Reader (488 nm/525 nm).

| SMILES | Level of H2O2 in cells (human normal Liver cells and PBMCs) | Level of H2O2 in cells (PBMCs and activated lymphocytes) |
| --- | --- | --- |
| O=c1cc(-c2ccccc2)oc2c(CN3CCC(O)CC3)c(O)c(O)c(O)c12 [BA-j, 5,6,7-trihydroxy-8-(4-hydroxy-piperidin-1-ylmethyl)-2-phenyl-chromen-4-one, reference compound] | below 10 μM |  |
| CC(=O)c1c(O)c(CN2CCC(O)CC2)c2oc(-c3ccccc3)cc(=O)c2c1O [CH-j, 6-Acetyl-5,7-dihydroxy-8-(4-hydroxy-piperidin-1-ylmethyl)-2-phenyl-chromen-4-one] |  | below 10 μM |
